Source: PMC7819943, “Rice protein-binding microarrays: a tool to detect cis-acting elements near promoter regions in rice”
The list shows a part of the results.

biological target: T1, OsSMF1 (Oryza sativa, UniProt Q6ZLB0 1-436); test: protein-binding microarray (RPBM); PBS, 2% BSA, 51.3 ng/ul salmon testes DNA, 50 uM zinc acetate, 200 nM TF, 25 C, 1 h; high values mean tight binding; settings: protein: recombinant; tags: N-terminal polyhistidine and DsRed monomer fusion (pET32a); chain copies: 2; label: CyDye5-dUTP incorporated in the synthesized complementary strand; 3' TTTTT single-stranded linker to array surface; dsDNA, one strand shown
T1 sequence: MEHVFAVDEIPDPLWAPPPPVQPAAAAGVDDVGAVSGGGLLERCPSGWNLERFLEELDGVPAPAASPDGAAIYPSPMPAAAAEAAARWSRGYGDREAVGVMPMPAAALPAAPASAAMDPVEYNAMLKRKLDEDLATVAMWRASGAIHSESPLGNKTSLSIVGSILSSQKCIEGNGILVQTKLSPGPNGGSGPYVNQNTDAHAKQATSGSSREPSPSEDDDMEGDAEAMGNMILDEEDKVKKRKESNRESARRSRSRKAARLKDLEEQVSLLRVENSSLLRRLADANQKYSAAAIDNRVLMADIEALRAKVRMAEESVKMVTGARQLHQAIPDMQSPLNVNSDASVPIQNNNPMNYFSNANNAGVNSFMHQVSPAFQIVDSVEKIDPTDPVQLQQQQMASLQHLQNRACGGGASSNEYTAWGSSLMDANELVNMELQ
In short: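 The binding signal is fluorescence intensity per feature, in arbitrary units, read on an Axon 4000B scanner. Polyhistidine- and DsRed-tagged transcription factors (N-terminal fusions) from E. coli BL21-CodonPlus were purified on Ni–NTA and applied at 200 nM for 1 h at 25 °C to a double-stranded, BSA-blocked custom Agilent array in buffer with 50 µM zinc acetate.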

Sequence	binding signal
AAATTTATAGTTTTGTGATAGGACACCTTACATCTATAGTCGGAGTCACCTAGTGCAG	31100 fluorescence intensity (a.u.)
TGTGGAAAGTGGCGATGAGAGGAGTCAGGGGTGGTTCGGCCGGAGTCACCTAGTGCAG	4640 fluorescence intensity (a.u.)
AGCTCCCGCCATCCGCCTCGCCGCTCTCTTCATCTCGCTCCGGAGTCACCTAGTGCAG	3560 fluorescence intensity (a.u.)
TACCTGCAGCTCCGCCCGCGACCTCGCCGACGCGCGGGCCCGGAGTCACCTAGTGCAG	3650 fluorescence intensity (a.u.)
ATACCTAATCAACGTGTCATTTTGTGCCCCTATCACGGAACGGAGTCACCTAGTGCAG	5960 fluorescence intensity (a.u.)
CTCTTCTATTGTTGTTGAAGTACCTGATTAACTGAGTAAGCGGAGTCACCTAGTGCAG	3180 fluorescence intensity (a.u.)
CCAGTCACACAACACAACAATTTAGGATTGGTAGAGCCCACGGAGTCACCTAGTGCAG	7110 fluorescence intensity (a.u.)
GGCCCATGGGCCGCCACGTCCGCATGACAATCACGCTACCCGGAGTCACCTAGTGCAG	9270 fluorescence intensity (a.u.)
TCTACTTAACATTGTATCTGCAAGGTATTGTAGTCTATTGCGGAGTCACCTAGTGCAG	3180 fluorescence intensity (a.u.)
CTCCTTGTCCACGTGGCGGCCTCCGATTCGCTGCCACCTCCGGAGTCACCTAGTGCAG	23900 fluorescence intensity (a.u.)
CTCATGTTTGTGTACGCATCATTGCTGATTCGTCGTCGACCGGAGTCACCTAGTGCAG	3830 fluorescence intensity (a.u.)
CATGATCGATCACACGTACGTGACGTTACCAGGCCGCCCGCGGAGTCACCTAGTGCAG	5100 fluorescence intensity (a.u.)
GAAGCCTCCCTCGGCCGCGTCACCACCGGCATCTGGTGCTCGGAGTCACCTAGTGCAG	8820 fluorescence intensity (a.u.)
TGTATAGGTACTCCCGGACCGGTGACTGTCTACGTCACTCCGGAGTCACCTAGTGCAG	7430 fluorescence intensity (a.u.)
CCAGCATCCTATATAGCCTCGCGGCCAGTACTCATCACTCCGGAGTCACCTAGTGCAG	3640 fluorescence intensity (a.u.)
AATGGTGTGAGGCAGGCGGACCCAAAAGTGAGGCATGGCGCGGAGTCACCTAGTGCAG	24800 fluorescence intensity (a.u.)
AAATGCCATCCCGGACAGAAATGCCCCTGGCTCTTCTTCTCGGAGTCACCTAGTGCAG	3790 fluorescence intensity (a.u.)
TTACGATGTCTTACTACAACTATAATCACAAAGTCATCATCGGAGTCACCTAGTGCAG	3190 fluorescence intensity (a.u.)
AAAGAAATATGGTAAAACTCCCATGAACAAGGCAGTGAATCGGAGTCACCTAGTGCAG	5200 fluorescence intensity (a.u.)
CACGATTGCTCGGTGAGCACTGAGCAGTGACCTCATTCGGCGGAGTCACCTAGTGCAG	3820 fluorescence intensity (a.u.)
CTGCCGCGTCATGTCGCGTCGCCGTCGCCGCGCCGTCTCCCGGAGTCACCTAGTGCAG	12400 fluorescence intensity (a.u.)

Some values from the entries so far:
Entry of TCTACTTAACATTGTATCTGCAAGGTATTGTAGTCTATTGCGGAGTCACCTAGTGCAG under binding signal: 3180 fluorescence intensity (a.u.)
Entry of TGTGGAAAGTGGCGATGAGAGGAGTCAGGGGTGGTTCGGCCGGAGTCACCTAGTGCAG under binding signal: 4640 fluorescence intensity (a.u.)
Entry of TTACGATGTCTTACTACAACTATAATCACAAAGTCATCATCGGAGTCACCTAGTGCAG under binding signal: 3190 fluorescence intensity (a.u.)

The list continues.

Sequence	binding signal
ATAAGGTCCTCCCTAGAATATATAGATTTTCATGGTTCTTCGGAGTCACCTAGTGCAG	6180 fluorescence intensity (a.u.)
GGTTATCTGCGTCGTCGTCTGTCATCTCCTCCTCATCTTCCGGAGTCACCTAGTGCAG	4480 fluorescence intensity (a.u.)
GCGTGCACAGTTCGTGCAAGTTGGGAGGAGACGCTTGCCACGGAGTCACCTAGTGCAG	3690 fluorescence intensity (a.u.)
GAGCCACCAAACCCTAATCCCCAACACGCACACGCACACGCGGAGTCACCTAGTGCAG	3650 fluorescence intensity (a.u.)
AAACAAATTTGCTGACTAGGATTCCACGTCAGCGAAACCACGGAGTCACCTAGTGCAG	30000 fluorescence intensity (a.u.)
ACTTACACAGTAATTACACCTCACTTACACCCGCTTACACCGGAGTCACCTAGTGCAG	5410 fluorescence intensity (a.u.)
GTAATTTTGTGTCACTTGCATGTGGGTCCATATCACTATGCGGAGTCACCTAGTGCAG	3620 fluorescence intensity (a.u.)
TGGCATGACACATTGATCACTGTCAACTCGCTGAGTCAGCCGGAGTCACCTAGTGCAG	12800 fluorescence intensity (a.u.)
TGTGCTGGTTGGATGCTTTGCTGGCTTGGCAGGCCGTGTCCGGAGTCACCTAGTGCAG	3910 fluorescence intensity (a.u.)
GATAATAGTTTACTCGTTGATTAATCCAATTCGTAATACACGGAGTCACCTAGTGCAG	3720 fluorescence intensity (a.u.)
CCGTGGTTGGGGTGGTGGGCCGGGGTGTTACGTTAATGGGCGGAGTCACCTAGTGCAG	5120 fluorescence intensity (a.u.)
TCCCATAACAGTATATGTGGGTGGTTTCGCTGACGTGGCACGGAGTCACCTAGTGCAG	29700 fluorescence intensity (a.u.)
CGTTAATTTGGCATACGTGGCCGCGAGAGTGACTTCTCGTCGGAGTCACCTAGTGCAG	10700 fluorescence intensity (a.u.)
ACGCTTTGCATGTGTAGACCACACCTTTCATCCTCCACCGCGGAGTCACCTAGTGCAG	3320 fluorescence intensity (a.u.)
AACAAGAACAAGGATGCCTCACACGTTCTCGGACACAAGGCGGAGTCACCTAGTGCAG	3480 fluorescence intensity (a.u.)
GTTTTGGTATTGGCTATAAAATGACATGGATGTTATTGGACGGAGTCACCTAGTGCAG	4760 fluorescence intensity (a.u.)
GAGACTAAGTCAGCGTGCCAACGCATATTCAGCGCCACGCCGGAGTCACCTAGTGCAG	4520 fluorescence intensity (a.u.)
TGAACTCAGATATGACTGACGCTTTGTCAAGGGCTCGAATCGGAGTCACCTAGTGCAG	4040 fluorescence intensity (a.u.)
CACGCGGCCCAACCTGGAATTTGGGCCCACTACACAACTGCGGAGTCACCTAGTGCAG	3510 fluorescence intensity (a.u.)
AGTACACCGTACACGGTGACGTAGCCCGTGCAGCCCACCACGGAGTCACCTAGTGCAG	9100 fluorescence intensity (a.u.)
CTCCTCCCATGCGCCGCCACGTAGGATCGCGCGATCAGATCGGAGTCACCTAGTGCAG	10300 fluorescence intensity (a.u.)
